Experiment in all cases: pull-down
For assay [1], the target named is H1.2 K17K64Ac (H1.2 acetylated at lysines 17 and 64) (human) (UniProt P16403).
The target of assay [2] is linker histone H1.2 (unmodified) (human) (UniProt P16403).
The target in assay [3] is H1.2 K17Ac (H1.2 acetylated at lysine 17) (human) (UniProt P16403).
The target of assay [4] is H1.2 K64Ac (H1.2 acetylated at lysine 64) (human) (UniProt P16403).
The target of assay [5] is H1.2 K17K64Ac (H1.2 acetylated at lysines 17 and 64) (human) (UniProt P16403). The source holds these as a separate data set.
Assay [6] has as its target H1.2 K17Ac (H1.2 acetylated at lysine 17) (human) (UniProt P16403). The source holds these as a separate data set.

The chains behind the UniProt entries cited, without tags or fusion partners.
UniProt P16403: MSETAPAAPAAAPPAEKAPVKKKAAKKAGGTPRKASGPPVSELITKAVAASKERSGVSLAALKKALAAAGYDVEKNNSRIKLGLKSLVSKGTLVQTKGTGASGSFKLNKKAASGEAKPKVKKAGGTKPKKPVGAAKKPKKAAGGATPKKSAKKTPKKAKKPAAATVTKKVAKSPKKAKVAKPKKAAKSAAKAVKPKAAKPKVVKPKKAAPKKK
UniProt Q01105: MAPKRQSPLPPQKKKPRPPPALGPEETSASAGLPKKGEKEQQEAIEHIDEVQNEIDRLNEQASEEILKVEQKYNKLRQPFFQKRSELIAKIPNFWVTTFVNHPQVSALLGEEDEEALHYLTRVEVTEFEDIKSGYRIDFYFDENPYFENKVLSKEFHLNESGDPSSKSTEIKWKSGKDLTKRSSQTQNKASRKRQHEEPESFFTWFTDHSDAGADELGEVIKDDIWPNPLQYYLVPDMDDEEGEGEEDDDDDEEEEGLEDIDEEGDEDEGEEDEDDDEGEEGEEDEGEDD
UniProt Q9P0U4: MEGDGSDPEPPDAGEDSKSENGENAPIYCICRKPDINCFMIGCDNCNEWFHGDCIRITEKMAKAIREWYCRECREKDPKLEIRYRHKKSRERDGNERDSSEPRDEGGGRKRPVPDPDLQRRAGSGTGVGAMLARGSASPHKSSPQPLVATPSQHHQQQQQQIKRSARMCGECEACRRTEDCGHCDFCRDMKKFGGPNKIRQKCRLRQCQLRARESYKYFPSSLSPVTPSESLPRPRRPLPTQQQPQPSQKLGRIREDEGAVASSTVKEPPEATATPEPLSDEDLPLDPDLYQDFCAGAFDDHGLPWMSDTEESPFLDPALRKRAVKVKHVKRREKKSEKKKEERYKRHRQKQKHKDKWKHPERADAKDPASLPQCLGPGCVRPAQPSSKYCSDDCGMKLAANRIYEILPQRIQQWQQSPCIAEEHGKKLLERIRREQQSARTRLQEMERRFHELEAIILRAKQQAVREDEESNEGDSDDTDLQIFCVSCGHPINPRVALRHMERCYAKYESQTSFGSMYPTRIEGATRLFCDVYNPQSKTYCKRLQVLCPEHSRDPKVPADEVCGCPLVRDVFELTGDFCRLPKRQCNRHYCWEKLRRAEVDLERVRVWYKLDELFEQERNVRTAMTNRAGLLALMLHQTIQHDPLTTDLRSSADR
UniProt Q9UBL3: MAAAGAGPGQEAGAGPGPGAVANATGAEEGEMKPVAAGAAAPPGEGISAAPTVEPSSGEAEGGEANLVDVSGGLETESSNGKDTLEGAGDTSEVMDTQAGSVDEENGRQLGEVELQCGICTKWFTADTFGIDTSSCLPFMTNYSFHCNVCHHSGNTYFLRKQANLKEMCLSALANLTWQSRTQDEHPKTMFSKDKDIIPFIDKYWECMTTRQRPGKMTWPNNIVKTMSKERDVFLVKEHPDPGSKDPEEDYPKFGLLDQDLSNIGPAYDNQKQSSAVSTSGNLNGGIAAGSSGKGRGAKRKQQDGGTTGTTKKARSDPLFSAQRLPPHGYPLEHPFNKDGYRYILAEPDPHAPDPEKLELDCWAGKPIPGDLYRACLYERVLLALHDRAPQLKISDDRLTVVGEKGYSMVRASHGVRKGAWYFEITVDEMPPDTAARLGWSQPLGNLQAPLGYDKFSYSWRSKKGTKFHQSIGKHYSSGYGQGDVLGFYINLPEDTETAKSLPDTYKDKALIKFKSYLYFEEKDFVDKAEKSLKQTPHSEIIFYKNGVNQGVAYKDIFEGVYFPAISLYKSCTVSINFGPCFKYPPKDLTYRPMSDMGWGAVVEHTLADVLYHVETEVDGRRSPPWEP
UniProt Q15022: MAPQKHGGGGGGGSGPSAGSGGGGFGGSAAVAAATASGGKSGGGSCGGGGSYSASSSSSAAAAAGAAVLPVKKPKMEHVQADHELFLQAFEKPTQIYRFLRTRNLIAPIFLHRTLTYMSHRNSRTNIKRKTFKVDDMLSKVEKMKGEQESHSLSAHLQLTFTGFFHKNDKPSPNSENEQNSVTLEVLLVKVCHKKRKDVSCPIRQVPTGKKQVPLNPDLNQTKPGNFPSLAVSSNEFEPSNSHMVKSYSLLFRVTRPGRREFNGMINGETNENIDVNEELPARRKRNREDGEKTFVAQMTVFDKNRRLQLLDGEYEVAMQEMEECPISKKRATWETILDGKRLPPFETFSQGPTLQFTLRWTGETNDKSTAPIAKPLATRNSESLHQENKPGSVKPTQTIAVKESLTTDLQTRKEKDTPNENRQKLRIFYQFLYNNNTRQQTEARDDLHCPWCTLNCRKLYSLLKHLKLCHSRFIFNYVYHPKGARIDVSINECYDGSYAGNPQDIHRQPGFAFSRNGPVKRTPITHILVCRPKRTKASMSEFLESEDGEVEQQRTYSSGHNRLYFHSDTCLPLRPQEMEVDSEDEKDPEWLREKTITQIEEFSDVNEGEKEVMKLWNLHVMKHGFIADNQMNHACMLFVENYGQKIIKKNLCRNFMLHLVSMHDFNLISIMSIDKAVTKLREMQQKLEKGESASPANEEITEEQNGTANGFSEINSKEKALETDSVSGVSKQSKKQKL
UniProt Q6ZN18: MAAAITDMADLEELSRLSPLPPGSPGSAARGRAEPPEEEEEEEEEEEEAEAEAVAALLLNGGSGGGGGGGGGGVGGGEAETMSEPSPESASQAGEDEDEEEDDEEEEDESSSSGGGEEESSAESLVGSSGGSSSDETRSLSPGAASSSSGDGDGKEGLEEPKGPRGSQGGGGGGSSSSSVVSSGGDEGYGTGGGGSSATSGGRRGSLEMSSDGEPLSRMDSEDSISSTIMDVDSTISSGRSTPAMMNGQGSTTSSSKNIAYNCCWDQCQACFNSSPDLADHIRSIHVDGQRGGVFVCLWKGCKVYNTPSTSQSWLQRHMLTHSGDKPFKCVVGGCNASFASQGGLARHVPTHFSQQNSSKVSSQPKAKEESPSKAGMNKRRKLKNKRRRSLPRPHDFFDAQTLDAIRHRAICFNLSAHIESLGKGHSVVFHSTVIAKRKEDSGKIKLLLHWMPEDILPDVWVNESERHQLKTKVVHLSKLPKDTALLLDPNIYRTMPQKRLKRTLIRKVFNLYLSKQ

Like-named read-outs stand apart in the source and are kept apart here. These are yes or no findings as the source states them, for the method shown. Binding seen in cells or lysates may run through a third protein. Some binding calls cover weakened binding; strength is not graded here.

Take SET (from UniProt Q01105 1-290): the binding result in assay [1], in assay [2], in assay [3] and in assay [4] was “binds” in each case.
With CXXC1 (from UniProt Q9P0U4 1-656), the binding result in assay [2] and in assay [3] was “binds” in each case.
Regarding ASH2L (from UniProt Q9UBL3 1-628), the binding entry in assay [2] and in assay [3] was “binds” in each case.
As to SUZ12 (from UniProt Q15022 1-739), the binding result in assay [2] and in assay [3] was “binds” each time.
As to AEBP2 (from UniProt Q6ZN18 1-517), the binding result in assay [2] and in assay [3] was “binds” throughout.

B1: ASCC2 (protein, UniProt Q9H1I8 1-757)
chain: MPALPLDQLQITHKDPKTGKLRTSPALHPEQKADRYFVLYKPPPKDNIPALVEEYLERATFVANDLDWLLALPHDKFWCQVIFDETLQKCLDSYLRYVPRKFDEGVASAPEVVDMQKRLHRSVFLTFLRMSTHKESKDHFISPSAFGEILYNNFLFDIPKILDLCVLFGKGNSPLLQKMIGNIFTQQPSYYSDLDETLPTILQVFSNILQHCGLQGDGANTTPQKLEERGRLTPSDMPLLELKDIVLYLCDTCTTLWAFLDIFPLACQTFQKHDFCYRLASFYEAAIPEMESAIKKRRLEDSKLLGDLWQRLSHSRKKLMEIFHIILNQICLLPILESSCDNIQGFIEEFLQIFSSLLQEKRFLRDYDALFPVAEDISLLQQASSVLDETRTAYILQAVESAWEGVDRRKATDAKDPSVIEEPNGEPNGVTVTAEAVSQASSHPENSEEEECMGAAAAVGPAMCGVELDSLISQVKDLLPDLGEGFILACLEYYHYDPEQVINNILEERLAPTLSQLDRNLDREMKPDPTPLLTSRHNVFQNDEFDVFSRDSVDLSRVHKGKSTRKEENTRSLLNDKRAVAAQRQRYEQYSVVVEEVPLQPGESLPYHSVYYEDEYDDTYDGNQVGANDADSDDELISRRPFTIPQVLRTKVPREGQEEDDDDEEDDADEEAPKPDHFVQDPAVLREKAEARRMAFLAKKGYRHDSSTAVAGSPRGHGQSRETTQERRKKEANKATRANHNRRTMADRKRSKGMIPS
Turning to B1, the binding result in assay [5] and in assay [6] was “binds” throughout.

The values are drawn from doi:10.1101/2021.06.08.447242.
